At least one structure is not confirmed: it was looked up by name or label, or the drawing left a doubt.
Target: thrombin (Homo sapiens, UniProt P00734)
Test: Effect of test compounds on thrombin activity: hydrolysis rate of chromogenic (Chromozim TH) or fluorogenic (BOC-Ala-Pro-Arg-AMC) substrate
Assay type: biochemical
Text: The effect of the synthesized substances on thrombin activity was studied by measuring the hydrolysis rate of specific low molecular weight substrates with thrombin in an aqueous buffering solution in the absence and presence of these compounds. One of these substrates was chromogenic substrate Chromozim TH (CTH): N-(p-Tosyl)-Gly-Pro-Arg-pNA [Sonder S A, Fenton J W 2nd. Thrombin Specificity with Tripeptide Chromogenic Substrates: Comparison of Human and Bovine Thrombins with and without Fibrinogen Clotting Activities. Clin. Chem., 1986, 32(6):934-937]. […]
The holes of a common 96-hole board were filled with a buffer containing 140 mM of NaCl, 20 mM of HEPES, and 0.1% polyethylene glycol (Mw=6,000), at pH=8.0. […] When a chromogenic substrate was used, accumulation of the colored reaction product—para-nitroaniline—was followed on a spectrophotometric Molecular Devices board reader (Thermomax, U.S.), measuring the increase in optical density on the 405 nm wavelength. […] The reaction kinetics was registered on a fluorometric Titertek Fluoroskan board reader (LabSystem, Finland).
The initial reaction rate was measured as the tangent of the kinetic curve inclination angle on a straight section (first 10 to 15 minutes of registration). […]

Cc1cc(OCCCSC(=N)N)cc(OS(=O)(=O)c2ccccc2)c1.I [HC-018s-IOC, 3-(3-methyl-5-(benzenesulfonyloxy)phenoxy)propyl-isothiouronium iodide]
thrombin inhibition (in words): highly effective thrombin inhibitor
